{"source": "paper PMC6476931", "target": "GST-vWbp-N (N-terminal half of vWbp) (S. aureus strain Newman)", "test": "ELISA; competition: Fg coated (5 μg/ml); GST-vWbp-N (6 nM), GST-Coa-N (400 nM) or SdrG (50 nM) mixed with increasing concentrations of Fg β-chain (1-25) peptide or scrambled peptide; detected with HRP anti-GST or anti-His; both purified", "note": "These are yes or no findings as the source states them, for the method shown. Binding calls can cover weak binding; strength is not graded here."}
{"binder": "QGVNDNEEGFFSARGHRPLDKKREE", "note": "[Fg β-chain peptide (1-25)]", "values": [{"measurement": "binding", "value": "binds"}]}
